Experimental data: PubChem BioAssay AID1224828 (NIAID, 2016)

- Assay: 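Find genes required for NF-kappaB p65 moving into the nucleus after LPS in mouse macrophages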 (primary screen)
- Cell system: mouse RAW264.7 G9 macrophage reporter cells (GFP-p65, Tnf promoter-mCherry)
- Knock-down reagent: siRNA pool against mouse genes, 100 nM
- Timing: 2 days siRNA transfection, then 40 min LPS before fixation
- Treatment: LPS (Salmonella minnesota R595) at 10 ng/ml
- Measurement: 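Microscopy ratio of nuclear to perinuclear-ring GFP-p65 signal, scaled to the plate median; gene score is the average of two replicate robust z-scores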
- Scale: p65 translocation robust z-score: higher = more nuclear NF-kappaB p65 after LPS than the plate median; nuclear/cytoplasmic p65 ratio: higher = more nuclear NF-kappaB p65
- Hit rule: 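Active if robust z is above 3.3 (negative regulators) or below -1.56, the Tlr4 control median (positive regulators); activity score 50 or more; control wells not called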
- Calls: active = hit (p65 shift raised or lowered); inactive = no clear change
In all, the deposit lists about 17,000 reagents; shown is an unselected part. Over the whole deposit, 762 (4.5%) were called active. 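Active calls include both raised and lowered p65 entry, mostly lowered; wells with fewer than 50 cells lack a z-score.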 Raw values vary from plate to plate and are shown uncorrected. No sequences are given here.

For Ppp4c (protein phosphatase 4, catalytic subunit), the values are p65 translocation robust z-score 0.89; nuclear/cytoplasmic p65 ratio, rep 1 = 1.62; nuclear/cytoplasmic p65 ratio, rep 2 = 1.49; low cell count flag enough cells to score; inactive. For Mrps2 (mitochondrial ribosomal protein S2), the entry reads p65 translocation robust z-score 0.34; nuclear/cytoplasmic p65 ratio, rep 1 = 1.9; nuclear/cytoplasmic p65 ratio, rep 2 = 1.59; low cell count flag enough cells to score; inactive. Depletion of Hoxc12 (homeobox C12) came out at: p65 translocation robust z-score 1.82; nuclear/cytoplasmic p65 ratio, rep 1 = 1.92; nuclear/cytoplasmic p65 ratio, rep 2 = 1.81; low cell count flag enough cells to score; inactive. Depletion of Phka2 (phosphorylase kinase alpha 2) resulted in: p65 translocation robust z-score -0.3; nuclear/cytoplasmic p65 ratio, rep 1 = 1.79; nuclear/cytoplasmic p65 ratio, rep 2 = 1.22; low cell count flag enough cells to score; inactive. For Or52a5b (olfactory receptor family 52 subfamily A member 5B), the entry reads p65 translocation robust z-score -1.66; nuclear/cytoplasmic p65 ratio, rep 1 = 1.18; nuclear/cytoplasmic p65 ratio, rep 2 = 1.08; low cell count flag enough cells to score; active. Adam8 (a disintegrin and metallopeptidase domain 8) gave p65 translocation robust z-score 0.32; nuclear/cytoplasmic p65 ratio, rep 1 = 1.6; nuclear/cytoplasmic p65 ratio, rep 2 = 1.79; low cell count flag enough cells to score; inactive.

E230001N04Rik (RIKEN cDNA E230001N04 gene) showed p65 translocation robust z-score 0.17; nuclear/cytoplasmic p65 ratio, rep 1 = 1.5; nuclear/cytoplasmic p65 ratio, rep 2 = 1.37; low cell count flag enough cells to score; inactive. Silencing of Fpr-rs6 (formyl peptide receptor, related sequence 6) resulted in: p65 translocation robust z-score 2.9; nuclear/cytoplasmic p65 ratio, rep 1 = 1.98; nuclear/cytoplasmic p65 ratio, rep 2 = 1.9; low cell count flag enough cells to score; inactive. Ubc (ubiquitin C) scored p65 translocation robust z-score -0.95; nuclear/cytoplasmic p65 ratio, rep 1 = 1.41; nuclear/cytoplasmic p65 ratio, rep 2 = 1.34; low cell count flag enough cells to score; inactive. With knock-down of Dph5 (diphthamide biosynthesis 5), the record shows p65 translocation robust z-score 0.7; nuclear/cytoplasmic p65 ratio, rep 1 = 1.45; nuclear/cytoplasmic p65 ratio, rep 2 = 1.59; low cell count flag enough cells to score; inactive. Against Polr2k (polymerase (RNA) II (DNA directed) polypeptide K), the entry reads p65 translocation robust z-score -1.25; nuclear/cytoplasmic p65 ratio, rep 1 = 1.06; nuclear/cytoplasmic p65 ratio, rep 2 = 1.08; low cell count flag enough cells to score; inactive. Against Erbb4 (erb-b2 receptor tyrosine kinase 4), the values are p65 translocation robust z-score 0.09; nuclear/cytoplasmic p65 ratio, rep 1 = 1.73; nuclear/cytoplasmic p65 ratio, rep 2 = 1.37; low cell count flag enough cells to score; inactive.

After knock-down of Retsat (retinol saturase (all trans retinol 13,14 reductase)), the record shows nuclear/cytoplasmic p65 ratio, rep 1 = 1.3; nuclear/cytoplasmic p65 ratio, rep 2 = 1.33; low cell count flag fewer than 50 cells per well; well left out of scoring; inactive. With knock-down of Gmeb2 (glucocorticoid modulatory element binding protein 2), the screen gave p65 translocation robust z-score 0.43; nuclear/cytoplasmic p65 ratio, rep 1 = 1.81; nuclear/cytoplasmic p65 ratio, rep 2 = 1.62; low cell count flag enough cells to score; inactive.

An excerpt of the results above, for reference:
Erbb4 (erb-b2 receptor tyrosine kinase 4) | p65 translocation robust z-score = 0.09; nuclear/cytoplasmic p65 ratio, rep 1 = 1.73; nuclear/cytoplasmic p65 ratio, rep 2 = 1.37; low cell count flag = enough cells to score; call = inactive
Retsat (retinol saturase (all trans retinol 13,14 reductase)) | nuclear/cytoplasmic p65 ratio, rep 1 = 1.3; nuclear/cytoplasmic p65 ratio, rep 2 = 1.33; low cell count flag = fewer than 50 cells per well; well left out of scoring; call = inactive
